These results are taken from paper PMC6484772, “S100A3 a partner protein regulating the stability/activity of RARα and PML-RARα in cellular models of breast/lung cancer and acute myeloid leukemia” (Oncogene, 2018).

Protein sequences, listed by entry. Tags and fused reporters are not part of them. Lines headed by an entry give the natural chain unless they say otherwise; changes in a name come on top.
UniProt P10276: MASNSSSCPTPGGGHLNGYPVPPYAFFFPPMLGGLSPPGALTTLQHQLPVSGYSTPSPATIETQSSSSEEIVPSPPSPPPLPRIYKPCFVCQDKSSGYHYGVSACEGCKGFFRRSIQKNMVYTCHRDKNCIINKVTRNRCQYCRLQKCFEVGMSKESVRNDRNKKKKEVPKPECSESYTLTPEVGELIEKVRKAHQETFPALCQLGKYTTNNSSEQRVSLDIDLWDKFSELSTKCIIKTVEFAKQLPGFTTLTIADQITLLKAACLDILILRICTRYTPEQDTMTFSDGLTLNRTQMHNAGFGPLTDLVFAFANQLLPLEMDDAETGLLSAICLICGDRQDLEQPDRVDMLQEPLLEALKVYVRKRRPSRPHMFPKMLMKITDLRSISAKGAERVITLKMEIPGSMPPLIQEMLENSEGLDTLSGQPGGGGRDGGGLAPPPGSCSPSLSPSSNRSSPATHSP

Results are given in words; binding and its absence hold for the method and conditions named. For some assays here: Binding seen in cells or lysates may run through a third protein. For some assays here: A result given as binding can be weak or reduced; the word gives no strength. For some assays here: Tags and fused reporters may be left off the sequences shown.

Assay [1] has as its target T1, S100A3 (over-expressed in COS-7) (human) (UniProt P33764).
T1 sequence: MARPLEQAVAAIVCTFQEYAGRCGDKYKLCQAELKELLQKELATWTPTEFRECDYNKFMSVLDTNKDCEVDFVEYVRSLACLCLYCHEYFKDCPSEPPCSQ
Nature of the assay: far-Western, overlay or dot blot; S100A3 immunoprecipitated from extracts of transfected COS-7 cells with anti-S100A3 beads, resolved and blotted; probed with GST-tagged RARα recombinant proteins; developed with an anti-GST antibody; both purified.

The target in assay [2] is T2, GST-tagged S100A3 (human) (UniProt P33764).
T2 sequence: T1 sequence
The experiment in a line: pull-down; GST-S100A3 (GST as negative control) conjugated to Glutathione-Sepharose beads, incubated with extracts of transfected COS-7 cells; western blot of the precipitates; only the target purified. A general note: A western blot detects proteins with antibodies after separation by electrophoresis.

GST-DEFΔH12 (domain or fragment): the binding entry in assay [1] is “no binding”.
On to RARα ΔF (domain or fragment), for which, in assay [2], the binding result was “binds”.
Still for that read-out and setting: the entry for RARα ΔAB (domain or fragment) is “binds”; for “RARα ΔD (from UniProt P10276) (receptor)” it is “binds”; for “RARα ΔC (from UniProt P10276) (receptor)” it is “binds”.
